The values below come from publication PMC7998230.

These are yes or no findings as the source states them, for the method shown. Some entries that bind do so weakly or less than the wild type.

For this experiment, the target named is T1, α2A-adrenergic receptor (mouse (endogenous in STHdh cells and R6/2 mouse brain)), Q01338.
T1 chain: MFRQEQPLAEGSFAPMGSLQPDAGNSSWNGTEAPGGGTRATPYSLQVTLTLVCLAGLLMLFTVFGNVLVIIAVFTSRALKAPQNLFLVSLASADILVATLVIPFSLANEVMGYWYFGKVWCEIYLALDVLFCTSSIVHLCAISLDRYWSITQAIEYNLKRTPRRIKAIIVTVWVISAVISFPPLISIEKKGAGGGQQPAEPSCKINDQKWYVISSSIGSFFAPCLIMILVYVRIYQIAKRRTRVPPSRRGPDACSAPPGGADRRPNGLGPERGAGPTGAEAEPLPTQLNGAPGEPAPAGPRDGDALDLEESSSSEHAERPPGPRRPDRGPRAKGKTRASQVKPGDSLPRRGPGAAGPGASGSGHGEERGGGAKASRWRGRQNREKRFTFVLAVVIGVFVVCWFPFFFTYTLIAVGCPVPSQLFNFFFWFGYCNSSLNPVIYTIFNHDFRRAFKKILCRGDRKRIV
As to the kind of experiment: denaturing SDS-PAGE and Western blot (band size); RIPA lysates of STHdh cells and mouse brain homogenates, 30 µg protein, Bolt 4-12% Bis-Tris gels with MES running buffer; anti-α2A-AR antibody; monomer approx. 55 kDa, dimer band >100 kDa. As to conditions: remark: other sources report otherwise. For orientation: A western blot detects proteins with antibodies after separation by electrophoresis.

B1: α2A-adrenergic receptor, Q01338 1-465 (receptor)
chain: MFRQEQPLAEGSFAPMGSLQPDAGNSSWNGTEAPGGGTRATPYSLQVTLTLVCLAGLLMLFTVFGNVLVIIAVFTSRALKAPQNLFLVSLASADILVATLVIPFSLANEVMGYWYFGKVWCEIYLALDVLFCTSSIVHLCAISLDRYWSITQAIEYNLKRTPRRIKAIIVTVWVISAVISFPPLISIEKKGAGGGQQPAEPSCKINDQKWYVISSSIGSFFAPCLIMILVYVRIYQIAKRRTRVPPSRRGPDACSAPPGGADRRPNGLGPERGAGPTGAEAEPLPTQLNGAPGEPAPAGPRDGDALDLEESSSSEHAERPPGPRRPDRGPRAKGKTRASQVKPGDSLPRRGPGAAGPGASGSGHGEERGGGAKASRWRGRQNREKRFTFVLAVVIGVFVVCWFPFFFTYTLIAVGCPVPSQLFNFFFWFGYCNSSLNPVIYTIFNHDFRRAFKKILCRGDRKRIV
With B1, the binding result is on record as “binds”.
